From article PMC11633487 come the findings set out here.

Protein sequences, listed by entry. Tags and fused reporters are not part of them. Lines headed by an entry give the natural chain unless they say otherwise; changes in a name come on top.
UniProt Q9UMS4: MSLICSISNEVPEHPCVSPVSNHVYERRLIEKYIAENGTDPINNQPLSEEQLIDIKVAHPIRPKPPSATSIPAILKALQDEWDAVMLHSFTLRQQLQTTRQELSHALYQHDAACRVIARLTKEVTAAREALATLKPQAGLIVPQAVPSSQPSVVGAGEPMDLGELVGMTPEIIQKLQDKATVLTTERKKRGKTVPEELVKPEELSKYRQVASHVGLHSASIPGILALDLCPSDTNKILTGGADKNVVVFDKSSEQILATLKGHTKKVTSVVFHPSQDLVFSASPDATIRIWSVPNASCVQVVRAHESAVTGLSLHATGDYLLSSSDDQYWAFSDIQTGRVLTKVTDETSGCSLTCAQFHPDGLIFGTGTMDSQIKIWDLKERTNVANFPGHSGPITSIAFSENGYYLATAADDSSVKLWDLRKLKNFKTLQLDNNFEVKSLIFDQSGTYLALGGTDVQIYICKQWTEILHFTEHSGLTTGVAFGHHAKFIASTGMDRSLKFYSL
UniProt P17844: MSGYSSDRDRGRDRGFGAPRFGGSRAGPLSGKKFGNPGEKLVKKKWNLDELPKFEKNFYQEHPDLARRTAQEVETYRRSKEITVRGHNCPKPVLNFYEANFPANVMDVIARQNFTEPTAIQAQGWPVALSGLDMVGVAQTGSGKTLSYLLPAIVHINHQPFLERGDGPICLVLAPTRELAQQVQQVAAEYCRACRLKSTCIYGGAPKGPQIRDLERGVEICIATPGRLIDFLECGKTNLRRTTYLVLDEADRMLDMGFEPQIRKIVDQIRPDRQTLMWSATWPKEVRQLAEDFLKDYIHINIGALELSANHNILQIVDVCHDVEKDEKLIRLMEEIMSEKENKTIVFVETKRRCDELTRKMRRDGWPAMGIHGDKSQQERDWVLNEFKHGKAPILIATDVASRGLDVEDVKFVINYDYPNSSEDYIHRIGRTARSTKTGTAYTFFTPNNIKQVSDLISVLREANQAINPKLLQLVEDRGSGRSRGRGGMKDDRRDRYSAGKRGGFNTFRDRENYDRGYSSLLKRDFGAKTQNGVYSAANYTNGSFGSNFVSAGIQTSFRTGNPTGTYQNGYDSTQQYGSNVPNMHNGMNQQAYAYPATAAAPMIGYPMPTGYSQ

The target in the test is PRP19-Myc with N-terminal U-box domain mutation (UniProt Q9UMS4). Put plainly: co-IP; HEK293T cells transfected with PRP19-Myc plasmids (domain mutations) for 48 h; lysates precipitated with anti-DDX5 and with anti-Myc antibodies, western blot.

No constants are given. Whether binding was seen depends on the method and setting. Binding seen in cells or lysates may run through a third protein.

Take “DDX5 in HEK293T cells (from UniProt P17844 1-614)”: the binding result is listed as “no binding”.
